Measurements published in PubChem BioAssay AID588497 (NMMLSC, 2011).
In all, about 360,000 compounds went through this assay and about 780 (0.22%) were called active. The shares of active, inactive and inconclusive entries below differ from those in the screen. Rule as the data show it: active = inhibition above about 35% (passing the limit was not always enough); inconclusive = no clear call, values can overlap the other calls.

Tested on: Botulinum neurotoxin type F light chain protease (Clostridium botulinum)
Test: BoNT/F light chain protease inhibitors, primary screen, biochemical, flow cytometry, MLPCN library (AID 588497); also: plate controls were buffer without enzyme for full effect and enzyme alone for no effect
Conditions: Multiplex microsphere protease cleavage assay, at 10 µM, hits give high values

Row | Structure (SMILES) | inhibition
1 | COc1ccc(OC)c(NC(=O)C2CCCCC2C(=O)O)c1 (centres undefined) | inconclusive: -1.2%
2 | Cc1ccc(CN2CCN(/N=C/C(Br)=C\c3ccccc3)CC2)cc1 | inactive: -0.2%
3 | O=C(Nc1cccc(-c2nnco2)c1)c1cccs1 | inconclusive: 17.3%
4 | CCCC(=O)N1CCC1(C)C(=O)NS(=O)(=O)c1ccc(C#N)cc1 (centres undefined) | inactive: 3.8%
5 | COc1cc(C(C)=O)ccc1OCC(O)CN1CCN(c2ccc(C)c(C)c2)CC1 (centres undefined) | inconclusive: -37.2%
6 | O=C(NC1CCC(CC2CCC(NC(=O)C(Cl)Cl)CC2)CC1)C(Cl)Cl (centres undefined) | inconclusive: -7.2%
7 | Cc1ccc(C(=O)c2nccn2C)cc1C | inactive: 1.2%
8 | CCN(C(=S)NC(=O)Cc1ccc(OC)cc1)c1ccccc1 | inconclusive: 4%
9 | COc1cc(OC)cc(C(=O)NC(C)CNc2ccc(Cl)cc2[N+](=O)[O-])c1 (centres undefined) | inconclusive: -48%
10 | Cc1c(C(=O)Nc2ccccn2)oc2c(Cl)cccc12 | inconclusive: -11.6%
11 | O=C(O)C1Nc2c(Cl)cc(Cl)cc2C2C=CCC12 (centres undefined) | inconclusive: -25.3%
12 | O=C(CN1CCN(Cc2ccccc2)CC1)N/N=C/C=C/c1ccco1 | inactive: -6%
13 | COc1ccc(N2C[C@H](CSC)[C@@H](CC(=O)Nc3ccc(Br)cc3)C2=O)cc1 | inactive: -1.3%
14 | CCCNC(=O)N1c2ccccc2Sc2ccccc21 | inconclusive: 32.4%
15 | COc1cccc(CC(NC(C)=O)C(=O)NC2CCN(S(=O)(=O)c3ccc(F)cc3)CC2)c1OC (centres undefined) | inactive: 1.9%
16 | CN(C)C(=O)c1cc(C(=O)c2ccc(Cl)cc2Cl)c[nH]1 | inconclusive: -25.6%
17 | CN(C)c1ccc(/C=C2\C(=O)NC(=O)N(CCc3ccc(F)cc3)C2=O)cc1 | inconclusive: 64.5%
18 | CCOc1cccc(-c2nnc3sc(-c4cccs4)nn23)c1 | inactive: -0.3%
19 | COCCCNC(=O)/C(C#N)=C1\N=C(NC(=O)c2cccs2)c2ccccc21 | inconclusive: 39.2%
20 | O=C(COC(=O)c1ccc(Br)cc1)NC1CCCC1 | inactive: 8.1%

Row | Structure (SMILES) | inhibition
21 | CN1CCN(c2nc(N)cc(=O)[nH]2)CC1 | inconclusive: -22.6%
22 | C[C@H](c1ccccc1)N1C[C@@H](COCc2ccccc2)Oc2cc(N3CC[C@@H](N(C)C)C3)ccc2S1(=O)=O | inactive: -5.9%
23 | O=c1c2c3nc4ccccc4nc3n(/N=C/c3ccccn3)c2ncn1-c1ccccc1 | inconclusive: -21.9%
24 | CCCOc1ccccc1/C=C(\C#N)C(=O)Nc1cccnc1 | inconclusive: 110%
25 | CCN(CC)CCNC(=O)/C(=C/c1cn(C)c2ccccc12)NC(=O)c1ccc(OC)c(OC)c1 | inconclusive: 96.9%
26 | Cc1nc2ccc(C(=O)N3CCSCC3)cc2s1 | inconclusive: 13.9%
27 | O=c1cc(CN2CCN(Cc3ccc(F)cc3)C(CCO)C2)[nH]c2ccccc12 (centres undefined) | inconclusive: 18.8%
28 | CCC(=O)Nc1ccc(NC(=O)c2cccc3ccccc23)cc1 | inconclusive: 5.1%
29 | CCOc1cc(C(=O)N2CCN(c3ccccn3)CC2)cc(OCC)c1OCC | inconclusive: -4.8%
30 | Cc1ccc(NC(=O)C2CCN(S(=O)(=O)c3ccc(C(C)(C)C)cc3)CC2)cc1S(=O)(=O)N1CCOCC1 | inactive: -2.8%
31 | CCOP1(=O)OCC2OC(n3cnc4c(N)ncnc43)C(O)C2O1 (centres undefined) | inconclusive: 30.5%
32 | O=C(O)Cn1cc2c(n1)CCCCC2 | inactive: 3.8%
33 | O=C(CCN1CCN(CCO)CC1)Nc1cccc(Br)c1 | inconclusive: 60.9%
34 | CC(=O)Nc1ccc(S(=O)(=O)NCCC(=O)OCc2csc(CC(=O)Nc3ccccc3C)n2)cc1 | inconclusive: -6.1%
35 | COc1cc(OC)cc(-c2c(C#Cc3ccsc3)c3cc(-c4ccc5[nH]ccc5c4)ccc3n2C)c1 | inactive: -3.6%
36 | Nc1cccc2cc(-c3ccccc3)oc12 | inconclusive: -16.3%
37 | COc1cc(C=NCC2OCCc3ccccc32)cc(OC)c1 (centres undefined) | inactive: 14.2%
38 | C=CCN1C(=O)C(CC(=O)Nc2ccc(OC)cc2)N(Cc2ccco2)C1=S (centres undefined) | inactive: -1.3%
39 | CCCCCCNC(=O)c1ncn[nH]1 | inconclusive: -79.9%
40 | O=C(Nc1cccc(Cl)c1)OC1CCCCc2cccnc21 (centres undefined) | inactive: -4.4%

Sorted by count of non-hydrogen atoms (descending): some entries from above
Row | Structure (SMILES) | inhibition
30 | Cc1ccc(NC(=O)C2CCN(S(=O)(=O)c3ccc(C(C)(C)C)cc3)CC2)cc1S(=O)(=O)N1CCOCC1 | inactive: -2.8%
29 | CCOc1cc(C(=O)N2CCN(c3ccccn3)CC2)cc(OCC)c1OCC | inconclusive: -4.8%
32 | O=C(O)Cn1cc2c(n1)CCCCC2 | inactive: 3.8%

Next compounds follow.

Row | Structure (SMILES) | inhibition
41 | CCOc1cc(NC(=S)Nc2cccc(C)c2)c(OCC)cc1NC(=O)CC(C)C | inactive: -4%
42 | COc1ccc(C(=O)NCC2CCCO2)cc1 (centres undefined) | active: 35.8%
43 | CN(C)c1ccc(C2N(C)C(=O)c3ccccc3N2C)cc1 (centres undefined) | inconclusive: 2.6%
44 | Nc1c(N(Cc2ccco2)C(=O)COc2ccccc2Cl)c(=O)[nH]c(=O)n1Cc1ccccc1 | inconclusive: -12.4%
45 | COc1ccc(CC(=O)NCC2CCCN(Cc3ccccc3Cl)C2)cc1 (centres undefined) | inconclusive: 3.4%
46 | CS(=O)(=O)c1nc([N+](=O)[O-])nn1CCCc1ccccc1 | inconclusive: 29.7%
47 | Cc1ccc(S(=O)(=O)N2CCOCC2)cc1NC(=O)CNCc1ccccc1Cl | inconclusive: -2.6%
48 | COc1ccc2c(c1)CCC1C2CCC2(C)C(O)C(=O)CC12 (centres undefined) | inactive: -2.7%
49 | CCOc1ccccc1N1CCN(CC(=O)Nc2ncc(C)s2)CC1 | inconclusive: -35.2%
50 | COc1cccc(CN2CCC2(C)C(=O)Nc2cccc(Oc3ccccc3)c2)c1OC (centres undefined) | inactive: -10.1%
51 | CCC(C)NC(=O)CO/N=C/c1ccc(C(=O)OC)cc1 (centres undefined) | inconclusive: -18.3%
52 | Cc1cccc(-c2noc(Cc3ccc(Cl)cc3)n2)c1 | inconclusive: -26.9%
53 | COc1cccc(OC)c1C(=O)Nc1nnc(-c2ccc(F)cc2)s1 | inconclusive: 28.3%
54 | COc1ccc(NC(=O)NS(=O)(=O)c2ccc(C)cc2)cn1 | inactive: 17.4%
55 | CNC(=O)c1sc(-c2ccccc2)nc1C | inactive: 0.5%
56 | CCn1nc(C(=O)NCCc2ccc3c(c2)OCCO3)c2ccccc2c1=O | inactive: -1.4%
57 | O=c1[nH]c(=O)n(-c2cccc(F)c2)c(O)c1/C=C1\C=Nc2ccccc21 | inactive: 8.2%
58 | CCC1(c2ccccc2)NC(=O)N(CC(=O)NC2CCCCCC2)C1=O (centres undefined) | inconclusive: 2.6%
59 | Cc1ncc([N+](=O)[O-])n1CC(=O)Nc1cccc(C(F)(F)F)c1 | inconclusive: 38.9%
